These results are taken from paper PMC4321561 (Frontiers in Pharmacology, 2015).

A short description of data set [1]: general procedure: Boc solid-phase peptide synthesis; HCTU. To be noted: UHPLC (Shimadzu), analytical C18.
A short description of data set [2]: Fmoc solid-phase peptide synthesis; HCTU. To be noted: whole synthesis, UHPLC (Shimadzu), analytical C18.

Strings that start with PEPTIDE1 are HELM notation: dots part the residues, brackets hold end groups and non-standard residues.

As to “PEPTIDE1{G.G.V.C.Y.G.R.R.A.R.R.R.C.R.R.D.S.D.C.P.G.A.C.I.C.K.G.N.G.Y.C.G.S.G.S.D}$PEPTIDE1,PEPTIDE1,1:R1-36:R2|PEPTIDE1,PEPTIDE1,4:R3-23:R3|PEPTIDE1,PEPTIDE1,13:R3-25:R3|PEPTIDE1,PEPTIDE1,19:R3-31:R3$$$V2.0”, the “final HPLC purity” value in data set [1] (conjugation step) is 93.9%; in data set [1] (whole synthesis), 99.4%.

Consider “PEPTIDE1{G.G.V.C.P.K.I.L.K.K.C.R.R.D.S.D.C.P.G.A.C.I.C.R.G.N.G.Y.C.G.S.G.S.D}$PEPTIDE1,PEPTIDE1,1:R1-34:R2|PEPTIDE1,PEPTIDE1,4:R3-21:R3|PEPTIDE1,PEPTIDE1,11:R3-23:R3|PEPTIDE1,PEPTIDE1,17:R3-29:R3$$$V2.0”, for which the “final HPLC purity” value in data set [1] (conjugation step) is 95.9%; in data set [1] (whole synthesis) it was 99.1%.

With NH2-YGRKKRRQRRRPPQG-COOH, the “final HPLC purity” value in data set [2] was 99.3%; in data set [1] (conjugation step), 99.2%.

Turning to PEPTIDE1{Y.G.R.K.A.R.R.R.R.R.R}$$$$V2.0, the results for the “final HPLC purity” value in data set [2] and in data set [1] (conjugation step) were 98.5% and 99.0%, respectively.

Regarding “PEPTIDE1{G.G.V.C.P.R.I.L.R.R.C.R.R.D.S.D.C.P.G.A.C.I.C.K.G.N.G.Y.C.G.S.G.S.D}$PEPTIDE1,PEPTIDE1,1:R1-34:R2|PEPTIDE1,PEPTIDE1,4:R3-21:R3|PEPTIDE1,PEPTIDE1,11:R3-23:R3|PEPTIDE1,PEPTIDE1,17:R3-29:R3$$$V2.0”, the “final HPLC purity” value in data set [1] (conjugation step) is listed as 96.0%; in data set [1] (whole synthesis), 97.5%.
